Experimental data: paper PMC11879112

Molecular target: T1, GFP-tagged FASTKD4 (UniProt Q969Z0)
T1 sequence: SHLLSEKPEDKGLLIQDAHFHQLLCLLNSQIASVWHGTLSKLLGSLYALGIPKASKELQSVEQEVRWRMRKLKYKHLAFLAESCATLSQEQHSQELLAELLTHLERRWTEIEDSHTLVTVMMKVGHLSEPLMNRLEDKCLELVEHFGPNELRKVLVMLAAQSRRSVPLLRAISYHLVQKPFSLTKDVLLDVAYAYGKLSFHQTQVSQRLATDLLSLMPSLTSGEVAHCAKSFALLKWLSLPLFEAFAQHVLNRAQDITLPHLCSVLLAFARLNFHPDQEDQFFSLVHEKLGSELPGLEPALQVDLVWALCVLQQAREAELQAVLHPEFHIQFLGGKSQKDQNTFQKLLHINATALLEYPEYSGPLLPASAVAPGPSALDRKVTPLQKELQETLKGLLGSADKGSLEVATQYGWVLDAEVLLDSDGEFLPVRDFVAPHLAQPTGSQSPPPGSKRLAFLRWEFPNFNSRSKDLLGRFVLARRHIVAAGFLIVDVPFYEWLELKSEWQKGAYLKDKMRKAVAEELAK
Test: co-IP; GFP-tagged FASTKD4 from transfected 143B (WT) cells on GFP-Trap Dynabeads, 2 h at 4°C; lysis in 260 mM sucrose, 100 mM KCl, 20 mM MgCl2, 10 mM Tris-HCl pH 7.5, 1% digitonin; immunoblot

binding: no binding
Substance: SLIRP (human (endogenous in 143B))

Results are given in words; binding and its absence hold for the method and conditions named. Binding seen in cells or lysates may run through a third protein. Sequences can lack the tags named with a protein.
